PubChem BioAssay AID1159578, Peter MacCallum Cancer Centre – 2015
The whole screen tested about 18,000 reagents; shown is a random part of them. In the full data, about 1,030 (5.7%) were called active. 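Inactive calls also include pools with fewer than 3300 nuclei, whose migration was not assessed.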 Raw values are not corrected between plates. Further read-outs or replicates are left out here.

- Aim: 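siRNA pools altering how lymphatic endothelial cells close a scratch wound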 (primary screen)
- Cell system: human lymphatic endothelial cells
- Reagent: siRNA pool against human genes, 40 nM
- Timing: 48 h after transfection
- Measurement: 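Cells stained with dye and imaged after a scratch; covered wound area and nuclei counted, duplicates averaged, migration set against mock wells and turned into a robust z-score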
- Reading the numbers: migration robust z-score: higher = faster migration into the scratch; nuclei per well: higher = more cells in the well
- Hit rule: 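Migration changed when robust z exceeds 2 or falls below -2 and mean nuclei number is at least 3300; otherwise not called changed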
- Calls: active = migration changed; inactive = no migration change, or too few cells

gene	migration robust z-score	migration class with cell-count check	nuclei per well, duplicate mean	Call
PIF1 (GeneID 80119)	-0.36	migration z between -2 and 2; enough cells	5589	inactive
MTMR9 (GeneID 66036)	1.04	migration z between -2 and 2; enough cells	6481	inactive
H2AC6 (GeneID 8334)	1.21	migration z between -2 and 2; enough cells	5062	inactive
GPR152 (GeneID 390212)	-2.46	migration z below -2; enough cells	3384	active
EIF2AK3 (GeneID 9451)	-0.18	migration z between -2 and 2; enough cells	6652	inactive
WWP1 (GeneID 11059)	-0.21	migration z between -2 and 2; enough cells	5626	inactive
CST2 (GeneID 1470)	-0.06	migration z between -2 and 2; enough cells	5410	inactive
CCR9 (GeneID 10803)	1.69	migration z between -2 and 2; enough cells	4952	inactive
DEFB125 (GeneID 245938)	0.1	migration z between -2 and 2; enough cells	5810	inactive
CACNA1B (GeneID 774)	0	migration z between -2 and 2; enough cells	6896	inactive
SPARCL1 (GeneID 8404)	1.4	migration z between -2 and 2; enough cells	6013	inactive
SLC6A3 (GeneID 6531)	0.62	migration z between -2 and 2; enough cells	4708	inactive
PKIG (GeneID 11142)	0.65	under 3300 nuclei; migration not judged	844	inactive
STK39 (GeneID 27347)	-1.25	migration z between -2 and 2; enough cells	4227	inactive
CCDC78 (GeneID 124093)	1.81	migration z between -2 and 2; enough cells	6366	inactive
OR13C8 (GeneID 138802)	-0.61	migration z between -2 and 2; enough cells	5276	inactive
DACT3 (GeneID 147906)	-0.57	migration z between -2 and 2; enough cells	6336	inactive
FRMD4A (GeneID 55691)	-0.65	migration z between -2 and 2; enough cells	6132	inactive
TMPRSS11D (GeneID 9407)	-0.49	migration z between -2 and 2; enough cells	5334	inactive
SERTAD4 (GeneID 56256)	1.91	migration z between -2 and 2; enough cells	6832	inactive
CLDN23 (GeneID 137075)	0.06	migration z between -2 and 2; enough cells	5062	inactive
SERPINA5 (GeneID 5104)	-0.13	migration z between -2 and 2; enough cells	6154	inactive
GTF2F1 (GeneID 2962)	1.19	migration z between -2 and 2; enough cells	5617	inactive
USP35 (GeneID 57558)	1.17	migration z between -2 and 2; enough cells	4470	inactive
FUT5 (GeneID 2527)	-0.57	migration z between -2 and 2; enough cells	5758	inactive
SKIC3 (GeneID 9652)	-0.46	migration z between -2 and 2; enough cells	6354	inactive
C1orf220 (GeneID 400798)	-0.56	migration z between -2 and 2; enough cells	5194	inactive
SEC14L3 (GeneID 266629)	-0.18	migration z between -2 and 2; enough cells	5400	inactive
PLXND1 (GeneID 23129)	-1.21	migration z between -2 and 2; enough cells	4158	inactive
TRA2B (GeneID 6434)	0.89	migration z between -2 and 2; enough cells	5595	inactive
IL23R (GeneID 149233)	1.56	migration z between -2 and 2; enough cells	5354	inactive
SLC19A2 (GeneID 10560)	-0.86	migration z between -2 and 2; enough cells	4344	inactive
PIWIL2 (GeneID 55124)	-0.32	migration z between -2 and 2; enough cells	5850	inactive
LINGO1 (GeneID 84894)	0.68	migration z between -2 and 2; enough cells	6646	inactive
CEP44 (GeneID 80817)	3.77	migration z above 2; enough cells	7260	active
LDB3 (GeneID 11155)	0.29	migration z between -2 and 2; enough cells	5866	inactive
CCDC28A (GeneID 25901)	1.3	migration z between -2 and 2; enough cells	5559	inactive
SSX7 (GeneID 280658)	1.64	migration z between -2 and 2; enough cells	7056	inactive

No new results follow: entries from further up.
gene	migration robust z-score	migration class with cell-count check	nuclei per well, duplicate mean	Call
PIF1 (GeneID 80119)	-0.36	migration z between -2 and 2; enough cells	5589	inactive
MTMR9 (GeneID 66036)	1.04	migration z between -2 and 2; enough cells	6481	inactive
H2AC6 (GeneID 8334)	1.21	migration z between -2 and 2; enough cells	5062	inactive
GPR152 (GeneID 390212)	-2.46	migration z below -2; enough cells	3384	active
EIF2AK3 (GeneID 9451)	-0.18	migration z between -2 and 2; enough cells	6652	inactive
WWP1 (GeneID 11059)	-0.21	migration z between -2 and 2; enough cells	5626	inactive
CST2 (GeneID 1470)	-0.06	migration z between -2 and 2; enough cells	5410	inactive

The list goes on.
gene	migration robust z-score	migration class with cell-count check	nuclei per well, duplicate mean	Call
FDFT1 (GeneID 2222)	-1.44	migration z between -2 and 2; enough cells	6492	inactive
FOXJ1 (GeneID 2302)	-0.34	migration z between -2 and 2; enough cells	5216	inactive
RAB39A (GeneID 54734)	0.4	migration z between -2 and 2; enough cells	5710	inactive
DPF3 (GeneID 8110)	0.62	migration z between -2 and 2; enough cells	4672	inactive
CAPZA1 (GeneID 829)	2.17	migration z above 2; enough cells	5741	active
IGF1R (GeneID 3480)	-0.52	migration z between -2 and 2; enough cells	5214	inactive
SLC18A3 (GeneID 6572)	0.6	migration z between -2 and 2; enough cells	5834	inactive
GAGE2C (GeneID 2574)	1.33	migration z between -2 and 2; enough cells	5298	inactive
ZBTB39 (GeneID 9880)	-0.34	migration z between -2 and 2; enough cells	4225	inactive
KLC4 (GeneID 89953)	0.98	migration z between -2 and 2; enough cells	4898	inactive
HDHD5 (GeneID 27440)	2.9	migration z above 2; enough cells	5614	active
ZSWIM4 (GeneID 65249)	1.58	migration z between -2 and 2; enough cells	6392	inactive
AGAP2 (GeneID 116986)	1.75	migration z between -2 and 2; enough cells	7556	inactive
RDH12 (GeneID 145226)	1.32	migration z between -2 and 2; enough cells	6392	inactive
SH3D19 (GeneID 152503)	-0.92	migration z between -2 and 2; enough cells	5028	inactive
ANO7 (GeneID 50636)	1.32	migration z between -2 and 2; enough cells	6191	inactive
LSMEM2 (GeneID 132228)	1.69	migration z between -2 and 2; enough cells	7866	inactive
TBC1D17 (GeneID 79735)	1.22	migration z between -2 and 2; enough cells	3458	inactive
CYP11B2 (GeneID 1585)	-0.78	migration z between -2 and 2; enough cells	5408	inactive
